Test results as given in the supplement of paper PMC9233669.
This sample is rich in variants without activity.

Key:
[1] = test system: biotinyl-Ile-oxazolone; assay: self-aminoacylation, catalytic enhancement (BIO) (fold over background); higher = more active; k-Seq, kA / k0A0; sequences stand for … in GGGAAUGGAUCCACAUCUACGAAUUC…UUCACUGCAGACUUGACGAAGCUG
In short: (§1)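 Working in 50 μL HEPES/NaCl/KCl/MgCl2/CaCl2 buffer with 5% acetonitrile at pH 6.9–7.0, mutagenized RNA pools (0.43 μM; 21-nt variable region) were reacted with 2–1250 μM of each biotinyl-aminoacyl-oxazolone for 90 minutes at room temperature. Streptavidin capture followed, with quantification by triplicate qPCR and Illumina sequencing. Catalytic enhancement is reported as median kA over the uncatalyzed rate, the low-activity peak of a bimodal Gaussian fit to the data.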

[2] = test system: biotinyl-Val-oxazolone; assay: self-aminoacylation, catalytic enhancement (BVO) (fold over background); higher = more active; k-Seq, kA / k0A0; sequences stand for … in GGGAAUGGAUCCACAUCUACGAAUUC…UUCACUGCAGACUUGACGAAGCUG
In short: as §1

[3] = test system: biotinyl-Phe-oxazolone; assay: self-aminoacylation, catalytic enhancement (BFO) (fold over background); higher = more active; k-Seq, kA / k0A0; sequences stand for … in GGGAAUGGAUCCACAUCUACGAAUUC…UUCACUGCAGACUUGACGAAGCUG
In short: as §1

[4] = test system: biotinyl-Met-oxazolone; assay: self-aminoacylation, catalytic enhancement (BMO) (fold over background); higher = more active; k-Seq, kA / k0A0; sequences stand for … in GGGAAUGGAUCCACAUCUACGAAUUC…UUCACUGCAGACUUGACGAAGCUG
In short: as §1

[5] = test system: biotinyl-Leu-oxazolone; assay: self-aminoacylation, catalytic enhancement (BLO) (fold over background); higher = more active; k-Seq, kA / k0A0; sequences stand for … in GGGAAUGGAUCCACAUCUACGAAUUC…UUCACUGCAGACUUGACGAAGCUG
In short: as §1

[6] = test system: biotinyl-Trp-oxazolone; assay: self-aminoacylation, catalytic enhancement (BWO) (fold over background); higher = more active; k-Seq, kA / k0A0; sequences stand for … in GGGAAUGGAUCCACAUCUACGAAUUC…UUCACUGCAGACUUGACGAAGCUG
In short: as §1

Sequence | self-aminoacylation [1] | self-aminoacylation [2] | self-aminoacylation [3] | self-aminoacylation [4] | self-aminoacylation [5] | self-aminoacylation [6]
AAGAUUGCUAAUAGUAGCAAG [Fam3.1 aminoacylation ribozyme variant] | 1.29 | 0.849 | 0.964 | 0.882 | 0.884 | 1.51
AAGAUUGCUAAUAGUCGCCAG [Fam3.1 aminoacylation ribozyme variant] | 1.39 | 1.57 | 0.817 | 1.15 | 1.39 | 2.02
AAGAUUGCUAAUUGUCGCAAG [Fam3.1 aminoacylation ribozyme variant] | 1.87 | 1.74 | 1.82 | 1.53 | 2 | 3.92
AAGGUUGAUAAUAGUCGCAAG [Fam3.1 aminoacylation ribozyme variant] | 1.33 | 1.08 | 1.85 | 1.15 | 1.21 | 1.19
AAGGUUGCUAAUUGUCGCAAG [Fam3.1 aminoacylation ribozyme variant] | 1.56 | 1.41 | 1.4 | 1.36 | 1.14 | 2.85
AAGGUUGCUAGUAGUCGCAAG [Fam3.1 aminoacylation ribozyme variant] | 1.18 | 1.07 | 1.77 | 1.3 | 0.971 | 1.3
AAGUAUCCUAAUAGUCGCAAG [Fam3.1 aminoacylation ribozyme variant] | 1.29 | 1.03 | 1.36 | 0.975 | 1.04 | 0.801
AAGUAUGCUAAUAGUCGAAAG [Fam3.1 aminoacylation ribozyme variant] | 1.48 | 1.21 | 15.7 | 1.7 | 1.31 | 4.62
AAGUCUGAUAAUAGUCGCAAG [Fam3.1 aminoacylation ribozyme variant] | 0.778 | 0.936 | 1.08 | 0.84 | 0.984 | 0.95
AAGUCUGCUAAUAGGCGCAAG [Fam3.1 aminoacylation ribozyme variant] | 0.854 | 1.16 | 1.02 | 0.886 | 0.969 | 1.51
AAGUCUGCUAAUAGUCGCCAG [Fam3.1 aminoacylation ribozyme variant] | 1.1 | 1.32 | 1.8 | 1.34 | 1.04 | 3.43
AAGUCUUCUAAUAGUCGCAAG [Fam3.1 aminoacylation ribozyme variant] | 2.06 | 1.52 | 3.19 | 1.56 | 1.83 | 2.07
AAGUGUGCUAAUAGUCACAAG [Fam3.1 aminoacylation ribozyme variant] | 1.41 | 1.35 | 6.87 | 1.82 | 1.22 | 3.91
AAGUGUGCUAAUAGUCGCAAC [Fam3.1 aminoacylation ribozyme variant] | 1.53 | 1.27 | 1.4 | 1.1 | 1.36 | 1.7
AAGUUAGCUAAUAGACGCAAG [Fam3.1 aminoacylation ribozyme variant] | 0.825 | 0.668 | 1.13 | 0.484 | 0.676 | 0.735
AAGUUAGCUAAUAGUCGCCAG [Fam3.1 aminoacylation ribozyme variant] | 1.91 | 1.33 | 1.48 | 2.09 | 1.67 | 3.82
AAGUUAGCUUAUAGUCGCAAG [Fam3.1 aminoacylation ribozyme variant] | 1.8 | 1.56 | 2.88 | 1.43 | 1.48 | 1.9
AAGUUGGCCAAUAGUCGCAAG [Fam3.1 aminoacylation ribozyme variant] | 1.79 | 1.47 | 1.81 | 1.32 | 1.95 | 1.51
AAGUUUCCUAAUAGCCGCAAG [Fam3.1 aminoacylation ribozyme variant] | 1.14 | 0.763 | 0.509 | 1.04 | 1.08 | 0.415
AAGUUUCCUAAUAGUCGUAAG [Fam3.1 aminoacylation ribozyme variant] | 1.2 | 1.07 | 2.58 | 1.18 | 1.07 | 1.27
AAGUUUCCUAAUAUUCGCAAG [Fam3.1 aminoacylation ribozyme variant] | 0.935 | 0.841 | 0.549 | 0.987 | 0.935 | 0.649
AAGUUUGACAAUAGUCGCAAG [Fam3.1 aminoacylation ribozyme variant] | 1.2 | 1.32 | 1.55 | 0.899 | 0.979 | 1.14
AAGUUUGAUAAUAGUCGCGAG [Fam3.1 aminoacylation ribozyme variant] | 0.981 | 0.995 | 0.847 | 0.981 | 1.07 | 1.13
AAGUUUGAUGAUAGUCGCAAG [Fam3.1 aminoacylation ribozyme variant] | 1.78 | 1.49 | 2.4 | 1.49 | 1.63 | 1.4
AAGUUUGCAAAUAGGCGCAAG [Fam3.1 aminoacylation ribozyme variant] | 0.7 | 0.733 | 0.57 | 0.692 | 0.746 | 0.52
AAGUUUGCAAAUAGUCGAAAG [Fam3.1 aminoacylation ribozyme variant] | 0.956 | 0.824 | 1.58 | 0.974 | 0.913 | 1.04

Sequence | self-aminoacylation [1] | self-aminoacylation [2] | self-aminoacylation [3] | self-aminoacylation [4] | self-aminoacylation [5] | self-aminoacylation [6]
AAGUUUGCAAAUAGUCGGAAG [Fam3.1 aminoacylation ribozyme variant] | 1.23 | 1.05 | 1.25 | 1.02 | 0.749 | 1.28
AAGUUUGCAAAUUGUCGCAAG [Fam3.1 aminoacylation ribozyme variant] | 1.26 | 1.19 | 0.968 | 1.47 | 1.57 | 1.53
AAGUUUGCCAAUAGUCGCAAC [Fam3.1 aminoacylation ribozyme variant] | 1.14 | 1.51 | 1.91 | 1.02 | 1.39 | 1.59
AAGUUUGCCAAUAGUCGCAAG [Fam3.1 aminoacylation ribozyme variant] | 1.11 | 1.05 | 1.78 | 1.06 | 1.01 | 1.27
AAGUUUGCGAAUAAUCGCAAG [Fam3.1 aminoacylation ribozyme variant] | 1.12 | 1.06 | 1.23 | 1.03 | 1.18 | 0.905
AAGUUUGCGAAUAGUCGCAAG [Fam3.1 aminoacylation ribozyme variant] | 0.93 | 0.968 | 1.14 | 0.998 | 0.905 | 1.01
AAGUUUGCGAAUAGUCGCAUG [Fam3.1 aminoacylation ribozyme variant] | 1.1 | 1.08 | 1.13 | 1.04 | 1.23 | 1
AAGUUUGCUAAAAGUCGAAAG [Fam3.1 aminoacylation ribozyme variant] | 0.975 | 1.05 | 4.76 | 0.85 | 0.673 | 2.17
AAGUUUGCUAAAAGUCGCACG [Fam3.1 aminoacylation ribozyme variant] | 1.31 | 1.05 | 1.34 | 1.14 | 1.05 | 1.58
AAGUUUGCUAAGAGUCGCAGG [Fam3.1 aminoacylation ribozyme variant] | 1.39 | 1.22 | 1.37 | 1.91 | 1.29 | 1.65
AAGUUUGCUAAGAGUCGCUAG [Fam3.1 aminoacylation ribozyme variant] | 0.873 | 0.71 | 0.816 | 0.945 | 0.63 | 1.15
AAGUUUGCUAAUAAUCGCGAG [Fam3.1 aminoacylation ribozyme variant] | 0.983 | 0.808 | 1.24 | 0.863 | 0.744 | 1.47
AAGUUUGCUAAUACGCGCAAG [Fam3.1 aminoacylation ribozyme variant] | 0.596 | 0.696 | 0.525 | 0.64 | 0.517 | 0.397
AAGUUUGCUAAUACUCACAAG [Fam3.1 aminoacylation ribozyme variant] | 0.818 | 0.909 | 0.906 | 0.609 | 0.685 | 0.721
AAGUUUGCUAAUACUCGCAAU [Fam3.1 aminoacylation ribozyme variant] | 0.971 | 1 | 0.831 | 0.964 | 0.931 | 0.716
AAGUUUGCUAAUACUCGCAUG [Fam3.1 aminoacylation ribozyme variant] | 0.747 | 0.697 | 0.905 | 0.692 | 0.578 | 0.582
AAGUUUGCUAAUAGACGAAAG [Fam3.1 aminoacylation ribozyme variant] | 0.61 | 0.541 | 0.618 | 0.578 | 0.5 | 0.739
AAGUUUGCUAAUAGACGCAGG [Fam3.1 aminoacylation ribozyme variant] | 0.73 | 0.724 | 1.16 | 0.822 | 0.683 | 0.602
AAGUUUGCUAAUAGCCGCAAC [Fam3.1 aminoacylation ribozyme variant] | 0.991 | 0.851 | 0.851 | 0.845 | 1.09 | 1.24
AAGUUUGCUAAUAGUCGAAAA [Fam3.1 aminoacylation ribozyme variant] | 1.52 | 1.54 | 1.54 | 2.08 | 1.48 | 1.66
AAGUUUGCUAAUAGUCGCACU [Fam3.1 aminoacylation ribozyme variant] | 1.34 | 1.29 | 1.19 | 0.854 | 1.11 | 1.02
AAGUUUGCUAAUAGUCGCGAC [Fam3.1 aminoacylation ribozyme variant] | 0.944 | 0.909 | 1.05 | 1 | 0.907 | 1.19
AAGUUUGCUAAUAGUCGCGAG [Fam3.1 aminoacylation ribozyme variant] | 1.33 | 1.2 | 2.01 | 1.33 | 1.29 | 2
AAGUUUGCUAAUAGUCGGACG [Fam3.1 aminoacylation ribozyme variant] | 0.808 | 0.625 | 0.715 | 0.764 | 0.597 | 0.829
AAGUUUGCUAAUAGUCUCAUG [Fam3.1 aminoacylation ribozyme variant] | 0.991 | 0.905 | 1.5 | 0.887 | 0.932 | 1.06
